Laboratory results published in the supplement of paper PMC12823440, “Inhibitors supercharge kinase turnover through native proteolytic circuits” (Nature, 2025).
The list shows a part of the results. The calls rarely recur for the same compound in another form.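 Kinases were expressed as nanoluciferase fusions in K562 cells and luminescence was read every 4 h between 2 and 18 h as percent of control, DMSO set to 100% and a positive control to 0%. A time point counts as decreased when the signal drops significantly (2 sigma). The hit call is the authors' own, does not follow from the count of time points alone, and its rule is not shown.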

Chains of the proteins cited; added tags and fusions are not shown. Lines headed by an entry give the natural chain unless they say otherwise; changes in a name come on top.
UniProt P50613: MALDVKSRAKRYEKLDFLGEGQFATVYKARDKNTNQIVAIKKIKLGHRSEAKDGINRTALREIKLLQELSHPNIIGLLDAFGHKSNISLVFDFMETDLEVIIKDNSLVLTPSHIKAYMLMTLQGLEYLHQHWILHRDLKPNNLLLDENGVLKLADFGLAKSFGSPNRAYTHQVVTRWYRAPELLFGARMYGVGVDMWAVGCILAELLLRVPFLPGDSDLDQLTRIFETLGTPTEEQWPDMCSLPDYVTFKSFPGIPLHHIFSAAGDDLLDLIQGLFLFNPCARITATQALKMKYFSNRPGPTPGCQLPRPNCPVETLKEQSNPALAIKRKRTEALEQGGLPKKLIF
UniProt P50750, whole entry: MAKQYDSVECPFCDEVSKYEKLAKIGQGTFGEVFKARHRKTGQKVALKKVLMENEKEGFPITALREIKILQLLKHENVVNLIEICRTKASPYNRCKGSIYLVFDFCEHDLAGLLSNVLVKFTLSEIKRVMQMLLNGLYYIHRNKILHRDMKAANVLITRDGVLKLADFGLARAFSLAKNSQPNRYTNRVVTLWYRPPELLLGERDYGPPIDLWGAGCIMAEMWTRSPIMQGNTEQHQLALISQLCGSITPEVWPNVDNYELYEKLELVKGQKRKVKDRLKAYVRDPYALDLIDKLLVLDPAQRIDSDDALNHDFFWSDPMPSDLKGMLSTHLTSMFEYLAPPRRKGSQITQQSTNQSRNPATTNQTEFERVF
UniProt O96017, whole entry: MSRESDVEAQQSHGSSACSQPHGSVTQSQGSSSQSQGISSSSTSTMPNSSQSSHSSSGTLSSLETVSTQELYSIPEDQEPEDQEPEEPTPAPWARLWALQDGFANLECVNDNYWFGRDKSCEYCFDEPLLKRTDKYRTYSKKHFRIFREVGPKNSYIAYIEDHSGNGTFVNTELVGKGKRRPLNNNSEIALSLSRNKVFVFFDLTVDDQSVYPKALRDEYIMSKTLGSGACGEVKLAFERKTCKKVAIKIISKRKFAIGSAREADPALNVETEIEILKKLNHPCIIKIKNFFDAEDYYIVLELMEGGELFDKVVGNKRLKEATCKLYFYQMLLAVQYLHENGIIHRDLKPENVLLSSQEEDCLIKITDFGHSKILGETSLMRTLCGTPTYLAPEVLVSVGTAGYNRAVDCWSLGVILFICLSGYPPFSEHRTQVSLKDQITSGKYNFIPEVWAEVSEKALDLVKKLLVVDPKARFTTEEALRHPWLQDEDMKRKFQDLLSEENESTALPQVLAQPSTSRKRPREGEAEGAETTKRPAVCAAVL
UniProt P07333, whole entry: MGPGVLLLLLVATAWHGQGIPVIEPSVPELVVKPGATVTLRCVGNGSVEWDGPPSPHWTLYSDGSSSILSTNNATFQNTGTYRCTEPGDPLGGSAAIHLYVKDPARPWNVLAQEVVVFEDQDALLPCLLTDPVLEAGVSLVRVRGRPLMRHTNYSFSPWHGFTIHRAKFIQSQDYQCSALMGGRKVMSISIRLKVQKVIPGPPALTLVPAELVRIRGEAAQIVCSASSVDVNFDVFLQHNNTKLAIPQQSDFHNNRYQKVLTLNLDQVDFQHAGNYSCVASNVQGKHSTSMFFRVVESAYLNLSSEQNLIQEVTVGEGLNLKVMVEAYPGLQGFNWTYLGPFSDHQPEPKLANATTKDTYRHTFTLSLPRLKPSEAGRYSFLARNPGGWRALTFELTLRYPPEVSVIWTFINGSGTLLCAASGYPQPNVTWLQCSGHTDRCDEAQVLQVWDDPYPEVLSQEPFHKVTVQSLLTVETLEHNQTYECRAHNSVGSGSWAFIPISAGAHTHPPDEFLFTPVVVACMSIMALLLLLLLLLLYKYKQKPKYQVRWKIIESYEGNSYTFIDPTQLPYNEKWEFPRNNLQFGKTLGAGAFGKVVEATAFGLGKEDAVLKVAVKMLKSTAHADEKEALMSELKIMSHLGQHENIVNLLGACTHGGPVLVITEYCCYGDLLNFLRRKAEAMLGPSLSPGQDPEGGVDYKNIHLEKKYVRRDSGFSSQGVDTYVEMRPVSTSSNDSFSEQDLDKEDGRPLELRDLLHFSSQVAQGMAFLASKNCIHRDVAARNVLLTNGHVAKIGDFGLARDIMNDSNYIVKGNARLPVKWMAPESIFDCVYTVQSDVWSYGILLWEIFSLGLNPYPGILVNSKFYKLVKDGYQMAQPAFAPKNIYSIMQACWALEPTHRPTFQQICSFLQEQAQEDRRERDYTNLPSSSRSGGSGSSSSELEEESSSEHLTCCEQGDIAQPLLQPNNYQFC
UniProt P48729: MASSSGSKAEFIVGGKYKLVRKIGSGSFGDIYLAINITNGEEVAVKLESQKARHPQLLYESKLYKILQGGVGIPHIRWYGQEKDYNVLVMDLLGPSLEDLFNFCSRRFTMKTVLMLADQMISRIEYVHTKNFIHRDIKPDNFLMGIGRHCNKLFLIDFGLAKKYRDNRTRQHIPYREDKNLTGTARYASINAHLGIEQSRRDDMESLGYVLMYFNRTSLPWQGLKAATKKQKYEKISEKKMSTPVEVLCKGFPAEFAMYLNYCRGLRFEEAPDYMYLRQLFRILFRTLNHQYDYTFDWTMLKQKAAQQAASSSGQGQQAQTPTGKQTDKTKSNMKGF
UniProt P48730: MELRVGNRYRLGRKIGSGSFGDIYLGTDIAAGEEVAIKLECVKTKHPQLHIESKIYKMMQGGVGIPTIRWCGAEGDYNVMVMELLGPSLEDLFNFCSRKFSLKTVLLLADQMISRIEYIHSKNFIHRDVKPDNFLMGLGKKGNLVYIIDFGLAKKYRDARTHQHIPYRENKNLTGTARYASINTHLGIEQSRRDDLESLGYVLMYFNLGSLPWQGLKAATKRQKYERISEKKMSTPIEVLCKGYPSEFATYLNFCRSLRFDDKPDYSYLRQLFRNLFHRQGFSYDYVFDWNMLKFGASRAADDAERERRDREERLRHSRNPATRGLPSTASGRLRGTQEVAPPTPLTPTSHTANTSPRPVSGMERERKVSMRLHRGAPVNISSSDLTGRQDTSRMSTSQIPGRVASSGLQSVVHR
UniProt Q08345: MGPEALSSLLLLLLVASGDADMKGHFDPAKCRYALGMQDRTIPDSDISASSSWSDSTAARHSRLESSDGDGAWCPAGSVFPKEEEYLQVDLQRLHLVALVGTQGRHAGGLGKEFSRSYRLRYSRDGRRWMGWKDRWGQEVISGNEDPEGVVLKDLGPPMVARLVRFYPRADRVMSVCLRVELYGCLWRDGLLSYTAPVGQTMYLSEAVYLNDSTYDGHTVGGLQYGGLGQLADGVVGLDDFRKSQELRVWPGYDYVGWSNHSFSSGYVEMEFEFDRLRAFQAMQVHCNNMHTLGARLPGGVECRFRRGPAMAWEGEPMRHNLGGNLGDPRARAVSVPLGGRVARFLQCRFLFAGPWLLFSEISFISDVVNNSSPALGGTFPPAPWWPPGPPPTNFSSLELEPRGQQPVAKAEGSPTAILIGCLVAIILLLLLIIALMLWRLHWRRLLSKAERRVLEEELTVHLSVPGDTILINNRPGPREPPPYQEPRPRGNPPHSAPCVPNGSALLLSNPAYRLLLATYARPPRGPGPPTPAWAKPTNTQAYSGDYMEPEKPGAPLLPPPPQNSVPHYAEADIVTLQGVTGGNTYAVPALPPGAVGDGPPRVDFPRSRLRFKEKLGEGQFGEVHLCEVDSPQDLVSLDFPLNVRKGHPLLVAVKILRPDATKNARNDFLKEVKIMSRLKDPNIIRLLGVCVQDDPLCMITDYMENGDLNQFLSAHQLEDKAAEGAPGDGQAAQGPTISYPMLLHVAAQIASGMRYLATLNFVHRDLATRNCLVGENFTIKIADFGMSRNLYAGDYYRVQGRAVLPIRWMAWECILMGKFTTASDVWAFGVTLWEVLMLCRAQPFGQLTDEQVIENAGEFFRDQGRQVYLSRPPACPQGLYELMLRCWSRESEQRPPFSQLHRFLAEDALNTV
UniProt Q9Y463, whole entry, looked up: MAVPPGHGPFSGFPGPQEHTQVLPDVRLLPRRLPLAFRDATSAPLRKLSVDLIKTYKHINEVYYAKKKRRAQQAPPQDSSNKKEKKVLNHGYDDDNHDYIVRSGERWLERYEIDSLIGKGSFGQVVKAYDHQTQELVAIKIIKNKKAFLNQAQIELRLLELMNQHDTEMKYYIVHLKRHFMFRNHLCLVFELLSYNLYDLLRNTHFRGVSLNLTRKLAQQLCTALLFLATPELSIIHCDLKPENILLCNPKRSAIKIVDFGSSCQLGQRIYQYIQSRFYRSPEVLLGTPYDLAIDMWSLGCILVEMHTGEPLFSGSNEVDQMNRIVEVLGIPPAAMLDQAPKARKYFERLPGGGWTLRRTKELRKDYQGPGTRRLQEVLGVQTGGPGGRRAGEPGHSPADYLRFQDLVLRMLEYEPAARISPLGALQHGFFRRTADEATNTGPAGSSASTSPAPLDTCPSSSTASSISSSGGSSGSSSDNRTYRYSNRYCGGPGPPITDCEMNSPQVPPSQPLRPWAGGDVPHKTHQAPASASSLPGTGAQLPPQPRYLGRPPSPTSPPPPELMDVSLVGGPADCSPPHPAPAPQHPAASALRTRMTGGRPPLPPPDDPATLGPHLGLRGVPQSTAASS
UniProt Q92630: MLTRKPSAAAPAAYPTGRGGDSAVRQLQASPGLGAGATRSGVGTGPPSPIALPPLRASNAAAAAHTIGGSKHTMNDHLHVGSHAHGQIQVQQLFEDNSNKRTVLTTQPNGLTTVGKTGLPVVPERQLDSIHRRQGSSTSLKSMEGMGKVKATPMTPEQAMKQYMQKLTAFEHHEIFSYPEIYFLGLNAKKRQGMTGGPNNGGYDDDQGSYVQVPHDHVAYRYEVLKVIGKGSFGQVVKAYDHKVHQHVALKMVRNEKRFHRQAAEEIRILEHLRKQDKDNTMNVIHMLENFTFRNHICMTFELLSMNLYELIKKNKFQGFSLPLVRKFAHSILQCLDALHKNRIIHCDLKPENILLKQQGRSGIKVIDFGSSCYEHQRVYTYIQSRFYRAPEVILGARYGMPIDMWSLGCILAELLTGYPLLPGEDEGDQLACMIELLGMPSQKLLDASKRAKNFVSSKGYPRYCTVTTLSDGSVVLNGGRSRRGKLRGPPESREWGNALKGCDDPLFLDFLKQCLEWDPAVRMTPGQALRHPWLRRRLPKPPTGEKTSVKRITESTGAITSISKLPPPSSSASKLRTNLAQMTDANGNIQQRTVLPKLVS
UniProt Q15303, whole entry R711C: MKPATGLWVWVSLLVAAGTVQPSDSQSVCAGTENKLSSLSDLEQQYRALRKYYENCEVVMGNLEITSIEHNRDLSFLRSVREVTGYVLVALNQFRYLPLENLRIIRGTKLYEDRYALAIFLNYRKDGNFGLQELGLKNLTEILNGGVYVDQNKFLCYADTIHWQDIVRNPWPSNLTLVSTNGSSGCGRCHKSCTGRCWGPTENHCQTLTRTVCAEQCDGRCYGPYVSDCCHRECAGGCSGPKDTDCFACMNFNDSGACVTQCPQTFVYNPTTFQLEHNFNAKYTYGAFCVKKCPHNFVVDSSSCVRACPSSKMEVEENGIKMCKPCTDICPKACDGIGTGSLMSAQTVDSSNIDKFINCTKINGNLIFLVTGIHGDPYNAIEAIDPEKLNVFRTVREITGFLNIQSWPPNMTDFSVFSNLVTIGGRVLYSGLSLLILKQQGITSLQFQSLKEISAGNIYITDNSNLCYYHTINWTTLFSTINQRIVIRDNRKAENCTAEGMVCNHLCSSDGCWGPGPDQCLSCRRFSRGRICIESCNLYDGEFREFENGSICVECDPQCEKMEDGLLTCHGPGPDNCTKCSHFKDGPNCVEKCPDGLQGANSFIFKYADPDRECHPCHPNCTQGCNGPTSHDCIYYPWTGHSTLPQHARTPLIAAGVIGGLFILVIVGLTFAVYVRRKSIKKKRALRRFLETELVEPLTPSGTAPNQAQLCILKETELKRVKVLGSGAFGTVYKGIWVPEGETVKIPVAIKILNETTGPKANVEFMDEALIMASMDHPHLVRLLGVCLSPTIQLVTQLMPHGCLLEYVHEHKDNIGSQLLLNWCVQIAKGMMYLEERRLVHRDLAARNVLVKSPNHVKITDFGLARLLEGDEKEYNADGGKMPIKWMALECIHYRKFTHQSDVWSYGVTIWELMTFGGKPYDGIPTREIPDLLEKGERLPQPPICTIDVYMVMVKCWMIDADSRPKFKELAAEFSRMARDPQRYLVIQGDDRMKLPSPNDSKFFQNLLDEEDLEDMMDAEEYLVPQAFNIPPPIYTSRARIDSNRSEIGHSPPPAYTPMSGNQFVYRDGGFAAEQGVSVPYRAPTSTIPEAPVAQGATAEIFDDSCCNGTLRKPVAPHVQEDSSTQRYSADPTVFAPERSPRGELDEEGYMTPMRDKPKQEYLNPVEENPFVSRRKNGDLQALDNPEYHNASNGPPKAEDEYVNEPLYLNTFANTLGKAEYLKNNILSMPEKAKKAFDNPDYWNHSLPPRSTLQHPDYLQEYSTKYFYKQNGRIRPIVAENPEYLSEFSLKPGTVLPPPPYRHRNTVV

Columns and labels:
Assay in all cases: kinase-Nluc reporter destabilization hit call (1 = scored as downregulated) (binary); higher = compound decreases kinase abundance
Details in all cases: K562; 2-18 h
CDK7 = CDK7 (UniProt P50613)
CDK9 = CDK9 (UniProt P50750)
CHEK2 = CHEK2 (UniProt O96017)
CSF1R = CSF1R (UniProt P07333)
CSK = CSK (UniProt P41240)
CSNK1A1 = CSNK1A1 (UniProt P48729)
CSNK1D = CSNK1D (UniProt P48730)
DDR1 = DDR1 (UniProt Q08345)
DYRK1B = DYRK1B (UniProt Q9Y463)
DYRK2 = DYRK2 (UniProt Q92630)
EGFR = EGFR (UniProt P00533)
EGFR_G719S = EGFR_G719S (UniProt P00533)
EGFR_G719S_T790M = EGFR_G719S_T790M (UniProt P00533)
EGFR_L718V = EGFR_L718V (UniProt P00533)
EGFR_L858R = EGFR_L858R (UniProt P00533)
EGFR_L861Q = EGFR_L861Q (UniProt P00533)
EGFR_T790M = EGFR_T790M (UniProt P00533)
EPHA2 = EPHA2 (UniProt P29317)
ERBB3 = ERBB3 (UniProt P21860)
[1] = molecular target: ERBB4_R711C (clone: ERBB4_mut) (UniProt Q15303)

Structure (SMILES) | kinase-Nluc reporter destabilization hit call (CDK7) | kinase-Nluc reporter destabilization hit call (CDK9) | kinase-Nluc reporter destabilization hit call (CHEK2) | kinase-Nluc reporter destabilization hit call (CSF1R) | kinase-Nluc reporter destabilization hit call (CSK) | kinase-Nluc reporter destabilization hit call (CSNK1A1) | kinase-Nluc reporter destabilization hit call (CSNK1D) | kinase-Nluc reporter destabilization hit call (DDR1) | kinase-Nluc reporter destabilization hit call (DYRK1B) | kinase-Nluc reporter destabilization hit call (DYRK2) | kinase-Nluc reporter destabilization hit call (EGFR) | kinase-Nluc reporter destabilization hit call (EGFR_G719S) | kinase-Nluc reporter destabilization hit call (EGFR_G719S_T790M) | kinase-Nluc reporter destabilization hit call (EGFR_L718V) | kinase-Nluc reporter destabilization hit call (EGFR_L858R) | kinase-Nluc reporter destabilization hit call (EGFR_L861Q) | kinase-Nluc reporter destabilization hit call (EGFR_T790M) | kinase-Nluc reporter destabilization hit call (EPHA2) | kinase-Nluc reporter destabilization hit call (ERBB3) | kinase-Nluc reporter destabilization hit call [1]
COc1c(Nc2ncc(Cl)c(N[C@H]3[C@@H](C(N)=O)[C@@H]4C=C[C@H]3C4)n2)ccc2c1CC[C@@H](N1CCOCC1)CC2 (10 µM) | inactive: 0 | inactive: 0 | inactive: 0 | inactive: 0 | inactive: 0 | inactive: 0 | inactive: 0 | inactive: 0 | inactive: 0 | inactive: 0 | inactive: 0 | inactive: 0 | inactive: 0 | inactive: 0 | inactive: 0 | inactive: 0 | inactive: 0 | inactive: 0 | inactive: 0 | inactive: 0
N#Cc1cc(N2CCC(C(=O)N3N=CC[C@H]3c3cc(F)cc(F)c3)CC2)ncn1 (10 µM) | inactive: 0 | inactive: 0 | inactive: 0 | inactive: 0 | inactive: 0 | inactive: 0 | inactive: 0 | inactive: 0 | inactive: 0 | inactive: 0 | inactive: 0 | inactive: 0 | inactive: 0 | inactive: 0 | inactive: 0 | inactive: 0 | inactive: 0 | inactive: 0 | inactive: 0 | inactive: 0
CC(ONC(=O)c1cc(C(F)(F)F)cc(C(F)(F)F)c1)C(=O)Nc1ccc(Cl)cc1 (stereo not given) (2.5 µM) | active: 1 | active: 1 | inactive: 0 | inactive: 0 | inactive: 0 | active: 1 | inactive: 0 | inactive: 0 | inactive: 0 | inactive: 0 | inactive: 0 | active: 1 | inactive: 0 | inactive: 0 | inactive: 0 | inactive: 0 | inactive: 0 | inactive: 0 | inactive: 0 | inactive: 0
CO/N=C1/C(c2c(O)[nH]c3cc(Cl)c(Cl)cc23)=Nc2ccccc21 (10 µM) | inactive: 0 | inactive: 0 | inactive: 0 | inactive: 0 | inactive: 0 | inactive: 0 | inactive: 0 | inactive: 0 | inactive: 0 | inactive: 0 | inactive: 0 | inactive: 0 | inactive: 0 | inactive: 0 | inactive: 0 | inactive: 0 | inactive: 0 | inactive: 0 | inactive: 0 | inactive: 0
CC1=CC(=O)C(C(C)C)=C/C1=N/OC(=O)c1ccccc1C [Poloxin] (2.5 µM) | inactive: 0 | inactive: 0 | inactive: 0 | inactive: 0 | inactive: 0 | inactive: 0 | inactive: 0 | inactive: 0 | inactive: 0 | inactive: 0 | inactive: 0 | inactive: 0 | inactive: 0 | inactive: 0 | inactive: 0 | inactive: 0 | inactive: 0 | inactive: 0 | inactive: 0 | inactive: 0
COc1cc2nnc(C(N)=O)c(Nc3ccc(C)cc3F)c2cc1N1CCN(CCO)CC1 (2.5 µM) | inactive: 0 | inactive: 0 | inactive: 0 | inactive: 0 | inactive: 0 | inactive: 0 | inactive: 0 | inactive: 0 | inactive: 0 | inactive: 0 | inactive: 0 | inactive: 0 | inactive: 0 | inactive: 0 | inactive: 0 | inactive: 0 | inactive: 0 | inactive: 0 | inactive: 0 | inactive: 0
COC(=O)N1CCN(C2CCC(Nc3nc(Nc4cnn(C)c4)nc4ccc(CC#N)nc34)CC2)CC1 (stereo not given) (10 µM) | inactive: 0 | inactive: 0 | inactive: 0 | inactive: 0 | inactive: 0 | inactive: 0 | inactive: 0 | inactive: 0 | inactive: 0 | inactive: 0 | inactive: 0 | inactive: 0 | inactive: 0 | inactive: 0 | inactive: 0 | inactive: 0 | inactive: 0 | inactive: 0 | inactive: 0 | inactive: 0
Fc1ccc(Cl)cc1-c1nc(Nc2ccncc2)c2nccnc2n1 (10 µM) | inactive: 0 | inactive: 0 | inactive: 0 | inactive: 0 | inactive: 0 | inactive: 0 | inactive: 0 | inactive: 0 | inactive: 0 | inactive: 0 | inactive: 0 | inactive: 0 | inactive: 0 | inactive: 0 | inactive: 0 | inactive: 0 | inactive: 0 | inactive: 0 | inactive: 0 | inactive: 0
Nc1ccc(Sc2nc3ccccc3s2)c(Cl)c1 [KRAS inhibitor-9] (10 µM) | inactive: 0 | inactive: 0 | inactive: 0 | inactive: 0 | inactive: 0 | inactive: 0 | inactive: 0 | inactive: 0 | inactive: 0 | inactive: 0 | inactive: 0 | inactive: 0 | inactive: 0 | inactive: 0 | inactive: 0 | inactive: 0 | inactive: 0 | inactive: 0 | inactive: 0 | inactive: 0
COc1cc(N2CCC(N3CCN(C)CC3)CC2)ccc1Nc1ncnc(Nc2ccccc2S(=O)(=O)C(C)C)n1 (10 µM) | inactive: 0 | inactive: 0 | inactive: 0 | inactive: 0 | inactive: 0 | inactive: 0 | inactive: 0 | inactive: 0 | inactive: 0 | inactive: 0 | inactive: 0 | inactive: 0 | inactive: 0 | inactive: 0 | inactive: 0 | inactive: 0 | inactive: 0 | inactive: 0 | inactive: 0 | inactive: 0
N#C/C(=C/c1ccc(O)c(O)c1)C(=O)N1CCc2ccccc21 [Tyrphostin AG 528] (10 µM) | inactive: 0 | inactive: 0 | inactive: 0 | inactive: 0 | inactive: 0 | inactive: 0 | inactive: 0 | inactive: 0 | inactive: 0 | inactive: 0 | inactive: 0 | inactive: 0 | inactive: 0 | inactive: 0 | inactive: 0 | inactive: 0 | inactive: 0 | inactive: 0 | inactive: 0 | inactive: 0
Cc1ncc(-c2cc(F)c(O)c(F)c2)cc1-c1cc(F)c(O)c(F)c1 (10 µM) | inactive: 0 | inactive: 0 | inactive: 0 | inactive: 0 | inactive: 0 | inactive: 0 | inactive: 0 | inactive: 0 | inactive: 0 | inactive: 0 | inactive: 0 | inactive: 0 | inactive: 0 | inactive: 0 | inactive: 0 | inactive: 0 | inactive: 0 | inactive: 0 | inactive: 0 | inactive: 0
O=c1cc(-c2ccc(O[C@@H]3O[C@H](CO)[C@@H](O)[C@H](O)[C@H]3O)cc2)oc2cc(O)c([C@@H]3O[C@H](CO)[C@@H](O)[C@H](O)[C@H]3O[C@@H]3OC[C@H](O)[C@H](O)[C@H]3O)c(O)c12 [Vaccarin] (10 µM) | inactive: 0 | inactive: 0 | inactive: 0 | inactive: 0 | inactive: 0 | inactive: 0 | inactive: 0 | inactive: 0 | inactive: 0 | inactive: 0 | inactive: 0 | inactive: 0 | inactive: 0 | inactive: 0 | inactive: 0 | inactive: 0 | inactive: 0 | inactive: 0 | inactive: 0 | inactive: 0
COc1ccc(Cl)cc1N(CC(=O)Nc1ccc2c(c1)OCO2)S(=O)(=O)c1ccccc1 (2.5 µM) | inactive: 0 | inactive: 0 | inactive: 0 | inactive: 0 | inactive: 0 | inactive: 0 | inactive: 0 | inactive: 0 | inactive: 0 | inactive: 0 | inactive: 0 | inactive: 0 | inactive: 0 | inactive: 0 | inactive: 0 | inactive: 0 | inactive: 0 | inactive: 0 | inactive: 0 | inactive: 0
CNCc1cc(Oc2ccc3c(ccn3C(=O)Nc3cc(C(F)(F)F)n(C)n3)c2)ncn1 [Acrizanib] (10 µM) | inactive: 0 | inactive: 0 | inactive: 0 | inactive: 0 | inactive: 0 | inactive: 0 | inactive: 0 | inactive: 0 | inactive: 0 | inactive: 0 | inactive: 0 | inactive: 0 | inactive: 0 | inactive: 0 | inactive: 0 | inactive: 0 | inactive: 0 | inactive: 0 | inactive: 0 | inactive: 0
O=C(Nc1ccc(F)cc1F)C(NC(=S)Nc1cc(C(F)(F)F)cc(C(F)(F)F)c1)c1ccccc1 (racemic) (2.5 µM) | inactive: 0 | inactive: 0 | inactive: 0 | inactive: 0 | inactive: 0 | inactive: 0 | inactive: 0 | inactive: 0 | inactive: 0 | inactive: 0 | inactive: 0 | inactive: 0 | inactive: 0 | inactive: 0 | inactive: 0 | inactive: 0 | inactive: 0 | inactive: 0 | inactive: 0 | inactive: 0
CN1CCC(Nc2nc(Nc3ccc(Oc4ccccc4)cc3)c3c(=O)[nH]cc(Br)c3n2)CC1 (2.5 µM) | inactive: 0 | inactive: 0 | inactive: 0 | inactive: 0 | inactive: 0 | inactive: 0 | inactive: 0 | active: 1 | inactive: 0 | inactive: 0 | inactive: 0 | inactive: 0 | inactive: 0 | inactive: 0 | inactive: 0 | inactive: 0 | inactive: 0 | inactive: 0 | inactive: 0 | inactive: 0
Cn1cc(C2=C(c3ccc(Cl)cc3Cl)C(=O)NC2=O)c2ccccc21 (10 µM) | inactive: 0 | inactive: 0 | inactive: 0 | inactive: 0 | inactive: 0 | inactive: 0 | inactive: 0 | inactive: 0 | inactive: 0 | inactive: 0 | inactive: 0 | inactive: 0 | inactive: 0 | inactive: 0 | inactive: 0 | inactive: 0 | inactive: 0 | inactive: 0 | inactive: 0 | inactive: 0

A few values from the list.
For kinase-Nluc reporter destabilization hit call (ERBB3), `O=C(Nc1ccc(F)cc1F)C(NC(=S)Nc1cc(C(F)(F)F)cc(C(F)(F)F)c1)c1ccccc1` (racemic) (2.5 µM) is entered as inactive: 0
For kinase-Nluc reporter destabilization hit call (EGFR), `COc1cc(N2CCC(N3CCN(C)CC3)CC2)ccc1Nc1ncnc(Nc2ccccc2S(=O)(=O)C(C)C)n1` (10 µM) is entered as inactive: 0
